Measured values published in the supplement of paper PMC10849652.
Some of the results follow.

Amino acid sequences for entries named in this document (tags omitted). A change or cut given only in a name is not applied to a line headed by its entry.
UniProt Q9NXX6: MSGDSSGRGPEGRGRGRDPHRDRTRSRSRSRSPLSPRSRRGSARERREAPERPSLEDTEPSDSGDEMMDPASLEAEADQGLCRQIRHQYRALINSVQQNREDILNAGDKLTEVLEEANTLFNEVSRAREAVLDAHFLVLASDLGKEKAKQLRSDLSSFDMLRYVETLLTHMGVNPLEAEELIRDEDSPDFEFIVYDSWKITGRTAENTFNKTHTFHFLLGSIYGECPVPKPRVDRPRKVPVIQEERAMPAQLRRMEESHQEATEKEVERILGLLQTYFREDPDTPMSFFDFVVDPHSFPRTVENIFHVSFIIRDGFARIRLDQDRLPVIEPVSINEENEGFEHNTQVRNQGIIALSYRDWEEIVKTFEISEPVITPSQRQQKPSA
UniProt Q8IVI9: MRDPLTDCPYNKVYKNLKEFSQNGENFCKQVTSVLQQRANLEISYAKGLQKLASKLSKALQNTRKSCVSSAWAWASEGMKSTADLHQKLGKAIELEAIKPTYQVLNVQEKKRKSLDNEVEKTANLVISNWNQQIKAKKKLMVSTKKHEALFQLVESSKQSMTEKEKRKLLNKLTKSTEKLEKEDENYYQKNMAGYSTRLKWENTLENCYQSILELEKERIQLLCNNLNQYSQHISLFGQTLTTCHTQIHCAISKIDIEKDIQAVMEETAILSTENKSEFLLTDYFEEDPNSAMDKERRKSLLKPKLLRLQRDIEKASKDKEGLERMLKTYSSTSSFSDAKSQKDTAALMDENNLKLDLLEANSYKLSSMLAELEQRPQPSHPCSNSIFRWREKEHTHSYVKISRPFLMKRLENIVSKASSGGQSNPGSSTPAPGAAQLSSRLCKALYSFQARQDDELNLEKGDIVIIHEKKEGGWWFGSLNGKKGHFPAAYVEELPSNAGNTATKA
UniProt Q9NPE3: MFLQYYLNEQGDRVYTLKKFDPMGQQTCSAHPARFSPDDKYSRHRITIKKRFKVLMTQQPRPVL
UniProt Q96MF7: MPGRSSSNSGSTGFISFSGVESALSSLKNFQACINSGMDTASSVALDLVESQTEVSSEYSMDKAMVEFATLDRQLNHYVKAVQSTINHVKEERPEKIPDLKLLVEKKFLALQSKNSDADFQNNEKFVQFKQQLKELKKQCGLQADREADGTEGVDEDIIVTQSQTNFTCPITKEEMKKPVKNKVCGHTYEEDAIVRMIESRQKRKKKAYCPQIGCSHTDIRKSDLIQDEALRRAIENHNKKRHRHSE
UniProt Q9UHY1: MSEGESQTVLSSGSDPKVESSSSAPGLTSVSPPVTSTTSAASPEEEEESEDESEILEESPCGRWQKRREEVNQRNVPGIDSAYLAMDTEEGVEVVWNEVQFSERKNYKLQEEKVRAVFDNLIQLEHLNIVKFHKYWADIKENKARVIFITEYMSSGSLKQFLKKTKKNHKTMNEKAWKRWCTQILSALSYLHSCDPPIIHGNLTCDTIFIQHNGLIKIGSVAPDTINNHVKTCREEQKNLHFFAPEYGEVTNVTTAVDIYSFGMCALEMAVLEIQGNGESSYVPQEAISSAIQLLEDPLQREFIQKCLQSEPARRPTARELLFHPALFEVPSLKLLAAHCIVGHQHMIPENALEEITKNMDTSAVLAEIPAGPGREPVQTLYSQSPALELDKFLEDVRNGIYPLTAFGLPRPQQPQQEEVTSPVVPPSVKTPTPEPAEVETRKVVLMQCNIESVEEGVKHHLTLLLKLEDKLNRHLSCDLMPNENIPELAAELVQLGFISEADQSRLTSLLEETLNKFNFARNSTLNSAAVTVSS
UniProt Q8TAT6: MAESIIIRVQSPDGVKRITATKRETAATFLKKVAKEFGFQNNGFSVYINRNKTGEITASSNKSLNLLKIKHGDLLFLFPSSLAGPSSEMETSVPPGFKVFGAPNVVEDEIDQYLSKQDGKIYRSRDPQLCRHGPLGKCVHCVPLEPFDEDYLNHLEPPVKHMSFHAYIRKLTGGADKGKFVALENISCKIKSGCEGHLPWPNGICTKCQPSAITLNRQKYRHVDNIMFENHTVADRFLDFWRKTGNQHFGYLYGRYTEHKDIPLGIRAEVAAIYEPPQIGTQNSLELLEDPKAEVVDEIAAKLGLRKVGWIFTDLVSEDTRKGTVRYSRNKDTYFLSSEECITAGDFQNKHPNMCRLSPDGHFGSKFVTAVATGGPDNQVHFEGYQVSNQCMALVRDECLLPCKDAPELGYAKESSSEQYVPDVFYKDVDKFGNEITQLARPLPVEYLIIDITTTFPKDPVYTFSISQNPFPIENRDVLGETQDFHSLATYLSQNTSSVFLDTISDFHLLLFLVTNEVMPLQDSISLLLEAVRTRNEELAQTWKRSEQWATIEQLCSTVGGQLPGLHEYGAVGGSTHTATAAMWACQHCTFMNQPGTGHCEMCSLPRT
UniProt P06748, whole entry, looked up: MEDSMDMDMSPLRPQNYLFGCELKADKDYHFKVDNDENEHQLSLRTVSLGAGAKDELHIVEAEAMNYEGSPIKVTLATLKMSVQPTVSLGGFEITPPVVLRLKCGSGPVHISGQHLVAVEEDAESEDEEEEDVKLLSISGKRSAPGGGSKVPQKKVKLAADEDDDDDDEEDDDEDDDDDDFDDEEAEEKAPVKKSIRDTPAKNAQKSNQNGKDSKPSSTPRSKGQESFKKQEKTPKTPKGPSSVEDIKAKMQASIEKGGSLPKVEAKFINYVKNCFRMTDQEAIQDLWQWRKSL
UniProt Q16656: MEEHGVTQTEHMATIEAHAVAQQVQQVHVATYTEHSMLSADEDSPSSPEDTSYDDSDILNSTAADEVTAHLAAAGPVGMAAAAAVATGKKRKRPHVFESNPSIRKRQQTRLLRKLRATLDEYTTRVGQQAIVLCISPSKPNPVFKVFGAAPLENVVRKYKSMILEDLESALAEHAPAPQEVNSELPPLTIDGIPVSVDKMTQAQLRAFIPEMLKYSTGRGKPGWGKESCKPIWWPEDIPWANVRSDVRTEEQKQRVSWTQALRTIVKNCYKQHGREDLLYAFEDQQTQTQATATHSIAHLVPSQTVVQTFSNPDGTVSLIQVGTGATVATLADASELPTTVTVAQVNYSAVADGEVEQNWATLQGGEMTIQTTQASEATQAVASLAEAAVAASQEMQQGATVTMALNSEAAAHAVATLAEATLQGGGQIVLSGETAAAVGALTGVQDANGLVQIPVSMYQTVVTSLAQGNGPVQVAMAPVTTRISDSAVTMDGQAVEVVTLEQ
UniProt Q9UNZ2: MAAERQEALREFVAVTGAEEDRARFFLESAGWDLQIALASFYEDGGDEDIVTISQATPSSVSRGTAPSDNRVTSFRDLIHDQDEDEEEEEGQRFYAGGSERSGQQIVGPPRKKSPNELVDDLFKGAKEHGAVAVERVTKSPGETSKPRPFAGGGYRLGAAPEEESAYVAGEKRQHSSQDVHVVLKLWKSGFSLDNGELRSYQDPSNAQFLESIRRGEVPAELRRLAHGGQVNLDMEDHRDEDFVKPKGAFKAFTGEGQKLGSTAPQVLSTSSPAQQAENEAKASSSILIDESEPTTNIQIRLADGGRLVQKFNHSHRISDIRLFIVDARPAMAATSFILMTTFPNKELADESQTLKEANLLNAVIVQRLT
UniProt Q9NZJ9: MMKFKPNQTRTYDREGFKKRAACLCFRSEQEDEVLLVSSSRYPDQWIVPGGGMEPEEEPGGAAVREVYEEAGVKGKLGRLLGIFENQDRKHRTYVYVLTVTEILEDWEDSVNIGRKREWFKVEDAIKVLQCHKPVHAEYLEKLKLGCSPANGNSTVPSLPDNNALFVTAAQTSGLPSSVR
UniProt Q8WTT2: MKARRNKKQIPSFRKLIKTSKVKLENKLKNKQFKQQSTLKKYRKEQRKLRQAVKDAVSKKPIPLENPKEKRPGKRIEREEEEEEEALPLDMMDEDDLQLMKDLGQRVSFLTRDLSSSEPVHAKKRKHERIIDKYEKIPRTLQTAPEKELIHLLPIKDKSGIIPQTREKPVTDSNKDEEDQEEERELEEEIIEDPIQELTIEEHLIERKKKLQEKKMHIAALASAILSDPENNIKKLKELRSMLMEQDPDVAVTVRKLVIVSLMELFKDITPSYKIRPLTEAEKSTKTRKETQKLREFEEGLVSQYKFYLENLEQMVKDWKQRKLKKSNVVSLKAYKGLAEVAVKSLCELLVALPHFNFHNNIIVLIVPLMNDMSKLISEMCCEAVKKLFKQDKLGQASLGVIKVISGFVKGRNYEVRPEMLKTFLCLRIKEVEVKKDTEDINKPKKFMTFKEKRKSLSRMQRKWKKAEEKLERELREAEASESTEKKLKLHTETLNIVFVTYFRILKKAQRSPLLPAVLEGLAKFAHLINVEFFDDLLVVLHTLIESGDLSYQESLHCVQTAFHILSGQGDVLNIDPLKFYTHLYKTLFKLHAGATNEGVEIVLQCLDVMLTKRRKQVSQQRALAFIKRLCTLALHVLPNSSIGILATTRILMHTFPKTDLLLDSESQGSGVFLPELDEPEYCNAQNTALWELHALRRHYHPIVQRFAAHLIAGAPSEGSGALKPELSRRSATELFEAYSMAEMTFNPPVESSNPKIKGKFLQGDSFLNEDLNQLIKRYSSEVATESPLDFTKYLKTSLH
UniProt Q8TCD5: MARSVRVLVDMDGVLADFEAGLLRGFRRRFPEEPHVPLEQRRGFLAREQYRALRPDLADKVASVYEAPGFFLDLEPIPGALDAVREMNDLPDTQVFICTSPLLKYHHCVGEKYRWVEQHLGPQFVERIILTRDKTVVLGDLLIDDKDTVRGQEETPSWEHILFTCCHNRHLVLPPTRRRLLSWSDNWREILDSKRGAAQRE
UniProt Q86UY8: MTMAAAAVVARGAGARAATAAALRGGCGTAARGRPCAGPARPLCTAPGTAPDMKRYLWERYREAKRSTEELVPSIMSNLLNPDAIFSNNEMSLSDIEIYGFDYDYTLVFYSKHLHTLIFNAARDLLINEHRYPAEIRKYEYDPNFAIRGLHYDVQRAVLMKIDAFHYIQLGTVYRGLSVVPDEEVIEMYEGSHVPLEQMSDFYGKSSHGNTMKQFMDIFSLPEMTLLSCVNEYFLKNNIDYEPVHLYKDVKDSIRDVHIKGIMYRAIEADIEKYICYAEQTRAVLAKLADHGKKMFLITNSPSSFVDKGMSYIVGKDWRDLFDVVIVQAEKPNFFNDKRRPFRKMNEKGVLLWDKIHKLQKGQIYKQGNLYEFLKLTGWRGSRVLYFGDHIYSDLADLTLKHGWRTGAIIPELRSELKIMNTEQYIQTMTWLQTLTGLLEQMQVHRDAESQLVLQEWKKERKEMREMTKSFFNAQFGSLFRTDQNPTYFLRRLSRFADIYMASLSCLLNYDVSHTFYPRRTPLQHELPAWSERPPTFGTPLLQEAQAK
UniProt Q9NSY0: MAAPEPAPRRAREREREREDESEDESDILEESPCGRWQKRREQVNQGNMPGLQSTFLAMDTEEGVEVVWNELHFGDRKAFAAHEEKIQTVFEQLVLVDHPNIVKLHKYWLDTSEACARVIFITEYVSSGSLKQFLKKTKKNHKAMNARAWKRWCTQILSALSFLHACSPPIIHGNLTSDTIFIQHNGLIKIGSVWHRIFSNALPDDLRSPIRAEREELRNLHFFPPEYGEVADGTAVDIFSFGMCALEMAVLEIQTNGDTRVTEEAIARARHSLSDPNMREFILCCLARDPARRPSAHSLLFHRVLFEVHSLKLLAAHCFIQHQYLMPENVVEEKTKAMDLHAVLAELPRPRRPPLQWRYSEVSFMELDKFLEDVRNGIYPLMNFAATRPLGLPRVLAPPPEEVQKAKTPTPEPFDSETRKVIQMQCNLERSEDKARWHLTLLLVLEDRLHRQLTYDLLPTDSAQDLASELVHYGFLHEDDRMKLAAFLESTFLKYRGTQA

Experiments:
Experiment in all cases: log2 fold change, soluble protein after heating vs DMSO (PISA); higher = thermal stabilisation; K562 lysate, 10 uM; active = over 0.2 and 3.5 SD of the protein, either way, in both replicates (recomputed)
erlotinib = compound: C#Cc1cccc(Nc2ncnc3cc(OCCOC)c(OCCOC)cc23)c1 [erlotinib]
Procedure, shortened: (§1)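 Values give the log-two fold change in thermal stability against solvent controls, from duplicates. Crude K562 extract at 1 mg/mL protein, made by dounce homogenisation in PBS pH 7.4 with 1 mM MgCl2, was treated with 10 μM compound for 30 min. After 3 min heating across 48°C-58°C, aliquots were pooled, adjusted to 0.5% NP-40 at 4°C and centrifuged at 21,000xg for 90 min. The supernatant was measured by TMTpro 16plex LC-MS/MS with channel sums equalised.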

[1] = compound: C/C(=N\NC(=O)C1=CC(=CC=C1)S(=O)(=O)N2CCOCC2)/C3=C(C=CC(=C3)Cl)O
Procedure, shortened: as §1

[2] = compound: C1=CC(=CC=C1C2=NC3=C(N2)C=C(C=C3)C(=O)N)OC4=CC=C(C=C4)Cl
Procedure, shortened: as §1

[3] = compound: C1=CC2=C(C=CC(=C2)/C=C\3/C(=O)NC(=NCC4=CC=CS4)S3)N=C1
Procedure, shortened: as §1

[4] = compound: C1=CC2=NC=CN=C2C=C1/C=C/3\C(=O)NC(=O)S3
Procedure, shortened: as §1

[5] = compound: C1=CC=C(C=C1)C2=NC(=C(N2)C3=CC=NC=C3)C4=CC(=C(C=C4)Cl)O
Procedure, shortened: as §1

[6] = compound: C1=CC=C2C(=C1)C3=NNC4=CC=CC(=C43)C2=O
Procedure, shortened: as §1

[7] = compound: C1CCN(C1)C(=O)NC2=CC=CC(=C2)NC3=NC=C(C(=N3)NCCC4=CN=CN4)Br
Procedure, shortened: as §1

[8] = compound: C1CN(CCC1(CC2=CC=C(C=C2)Cl)N)C3=NC=NC4=C3C=CN4
Procedure, shortened: as §1

IRAK-1-4 Inhibitor I = compound: C1COCCN1CCN2C3=CC=CC=C3N=C2NC(=O)C4=CC(=CC=C4)[N+](=O)[O-] [IRAK-1-4 Inhibitor I]
Procedure, shortened: as §1

ibrutinib = compound: C=CC(=O)N1CCC[C@@H](n2nc(-c3ccc(Oc4ccccc4)cc3)c3c(N)ncnc32)C1 [ibrutinib]
Procedure, shortened: as §1

[9] = compound: CC(=O)c1cnc2ccc(-c3cc(Cl)c(O)c(Cl)c3)nc2c1N[C@H]1CC[C@H](CN(C)C)CC1
Procedure, shortened: as §1

ralimetinib = compound: CC(C)(C)Cn1c(N)nc2ccc(-c3[nH]c(C(C)(C)C)nc3-c3ccc(F)cc3)nc21 [ralimetinib]
Procedure, shortened: as §1

[10] = compound: CC(C)(O)CC(=O)NCCn1ccc2ncnc(Nc3ccc(Oc4cccc(C(F)(F)F)c4)c(Cl)c3)c21
Procedure, shortened: as §1

[11] = compound: CC(C)C1=C2N=C(C=C(N2N=C1)NCC3=CC=CC=C3)NCCCCCCN
Procedure, shortened: as §1

[12] = compound: CC1=C(C(CC(=O)N1)C2=CC=C(C=C2)C(F)(F)F)C(=O)NC3=C(C=C4C(=C3)C=NN4)F
Procedure, shortened: as §1

[13] = compound: CC1=C(C2=C(C=C1)C(=O)C3=CC=CC=C3N2CCCN)C
Procedure, shortened: as §1

[14] = compound: CC1=C(C=C(C=C1)NC(=O)C2=CC(=CC=C2)C(C)(C)C#N)NC3=CC4=C(C=C3)N=CN(C4=O)C
Procedure, shortened: as §1

[15] = compound: CC1=C(C=C(C=C1)NC(=O)C2=CC(=CC=C2)N(C)C)NC(=O)C3=CC=C(C=C3)O
Procedure, shortened: as §1

[16] = compound: CC1=CC=C(C=C1)SC2=C3C=C(SC3=CN=C2)C(=O)N
Procedure, shortened: as §1

Measured: log2 fold change

NSMCE4A (UniProt Q9NXX6)
inactive: erlotinib 0.01 | [1] -0.054 | [2] -0.003 | [3] 0.013 | [4] -0.013 | [5] 0.008 | [6] -0.044 | [7] -0.008 | [8] 0.039 | IRAK-1-4 Inhibitor I 0.034 | ibrutinib -0.089 | [9] 0.021 | ralimetinib 0.034 | [10] 0.015 | [11] -0.023 | [12] 0.021 | [13] 0.054 | [14] -0.01 | [15] -0.024 | [16] 0.032

NOSTRIN (UniProt Q8IVI9)
inactive: erlotinib -0.031 | [1] 0.032 | [2] 0.132 | [3] 0.072 | [4] -0.008 | [5] -0.013 | [6] 0.07 | [7] -0.055 | [8] -0.065 | IRAK-1-4 Inhibitor I 0.001 | ibrutinib 0.025 | [9] -0.009 | ralimetinib 0.012 | [10] -0.041 | [11] -0.125 | [12] -0.032 | [13] -0.039 | [14] -0.019 | [15] 0.088 | [16] 0.012

NOP10 (UniProt Q9NPE3)
inactive: erlotinib 0.107 | [1] -0.01 | [2] -0.038 | [3] -0.095 | [4] 0.099 | [5] 0.008 | [6] -0.225 | [7] 0.083 | [8] 0.032 | IRAK-1-4 Inhibitor I -0.035 | ibrutinib 0 | [9] 0.036 | ralimetinib 0.021 | [10] -0.032 | [11] -0.165 | [12] 0.027 | [13] -0.018 | [14] -0.047 | [15] -0.043 | [16] -0.007

NSMCE2 (UniProt Q96MF7)
inactive: erlotinib -0.07 | [1] -0.025 | [2] -0.037 | [3] 0.061 | [4] -0.025 | [5] 0.009 | [6] -0.016 | [7] -0.021 | [8] -0.012 | IRAK-1-4 Inhibitor I -0.038 | ibrutinib 0.009 | [9] 0.009 | ralimetinib 0.018 | [10] 0.062 | [11] -0.006 | [12] 0.094 | [13] 0 | [14] -0.006 | [15] 0.034 | [16] -0.003

2 records picked at random from the list so far:
NSMCE4A (UniProt Q9NXX6)
inactive: erlotinib 0.01 | [1] -0.054 | [2] -0.003 | [3] 0.013 | [4] -0.013 | [5] 0.008 | [6] -0.044 | [7] -0.008 | [8] 0.039 | IRAK-1-4 Inhibitor I 0.034 | ibrutinib -0.089 | [9] 0.021 | ralimetinib 0.034 | [10] 0.015 | [11] -0.023 | [12] 0.021 | [13] 0.054 | [14] -0.01 | [15] -0.024 | [16] 0.032

NOSTRIN (UniProt Q8IVI9)
inactive: erlotinib -0.031 | [1] 0.032 | [2] 0.132 | [3] 0.072 | [4] -0.008 | [5] -0.013 | [6] 0.07 | [7] -0.055 | [8] -0.065 | IRAK-1-4 Inhibitor I 0.001 | ibrutinib 0.025 | [9] -0.009 | ralimetinib 0.012 | [10] -0.041 | [11] -0.125 | [12] -0.032 | [13] -0.039 | [14] -0.019 | [15] 0.088 | [16] 0.012

Additional records follow:

NRBP1 (UniProt Q9UHY1)
inactive: erlotinib -0.012 | [1] -0.011 | [2] 0.006 | [3] 0.001 | [4] -0.018 | [5] 0.007 | [6] -0.05 | [7] -0.007 | [8] 0.017 | IRAK-1-4 Inhibitor I 0.001 | ibrutinib 0.007 | [9] -0.003 | ralimetinib -0.008 | [10] 0 | [11] -0.005 | [12] -0.033 | [13] -0.011 | [14] 0.007 | [15] 0.008 | [16] -0.01

NPLOC4 isoform 2 (UniProt Q8TAT6)
inactive: erlotinib -0.022 | [1] 0.032 | [2] -0.004 | [3] 0.001 | [4] -0.012 | [5] 0.011 | [6] -0.016 | [7] -0.012 | [8] 0.007 | IRAK-1-4 Inhibitor I 0.001 | ibrutinib -0.016 | [9] -0.015 | ralimetinib -0.01 | [10] -0.003 | [11] 0.027 | [12] -0.005 | [13] -0.009 | [14] 0.062 | [15] 0.018 | [16] -0.015

NPM1 (UniProt P06748)
inactive: erlotinib -0.044 | [1] 0.002 | [2] -0.028 | [3] 0.003 | [4] -0.021 | [5] 0.001 | [6] 0.064 | [7] 0.045 | [8] -0.022 | IRAK-1-4 Inhibitor I -0.028 | ibrutinib 0.006 | [9] 0.012 | ralimetinib 0.001 | [10] -0.014 | [11] 0.017 | [12] -0.027 | [13] 0.007 | [14] -0.02 | [15] -0.015 | [16] 0

NRF1 isoform 4 (UniProt Q16656)
inactive: erlotinib -0.011 | [1] -0.001 | [2] -0.04 | [3] -0.027 | [4] -0.032 | [5] -0.004 | [6] -0.007 | [7] 0.01 | [8] -0.019 | IRAK-1-4 Inhibitor I -0.007 | ibrutinib -0.001 | [9] 0.021 | ralimetinib -0.028 | [10] -0.016 | [11] -0.009 | [12] -0.047 | [13] -0.005 | [14] 0.023 | [15] 0.044 | [16] -0.025

NSFL1C isoform 5 (UniProt Q9UNZ2)
inactive: erlotinib -0.017 | [1] 0.01 | [2] 0.05 | [3] 0.026 | [4] -0.036 | [5] 0 | [6] 0.013 | [7] 0.004 | [8] -0.017 | IRAK-1-4 Inhibitor I -0.014 | ibrutinib 0.032 | [9] 0 | ralimetinib -0.031 | [10] 0.027 | [11] 0.03 | [12] -0.014 | [13] 0.004 | [14] -0.015 | [15] -0.013 | [16] -0.009

NUDT4 (UniProt Q9NZJ9)
inactive: erlotinib -0.043 | [1] 0.233 | [2] -0.022 | [3] 0.07 | [4] -0.055 | [5] -0.009 | [6] 0.039 | [7] 0.059 | [8] 0.026 | IRAK-1-4 Inhibitor I -0.026 | ibrutinib 0.091 | [9] 0.022 | ralimetinib 0.074 | [10] 0.067 | [11] -0.012 | [12] 0.017 | [13] 0.003 | [14] -0.105 | [15] -0.014 | [16] 0.058

NOC3L (UniProt Q8WTT2)
inactive: erlotinib -0.011 | [1] -0.209 | [2] 0.032 | [3] 0.039 | [4] -0.016 | [5] 0.029 | [6] 0.052 | [7] -0.002 | [8] 0.015 | IRAK-1-4 Inhibitor I -0.108 | ibrutinib -0.027 | [9] 0.009 | ralimetinib 0.004 | [10] -0.023 | [11] -0.003 | [12] -0.061 | [13] 0.049 | [14] 0.08 | [15] -0.008 | [16] 0.016

NOP53 (UniProt Q9NZM5)
inactive: erlotinib -0.059 | [1] -0.022 | [2] -0.021 | [3] 0.115 | [4] -0.001 | [5] 0.002 | [6] -0.081 | [7] -0.035 | [8] -0.001 | IRAK-1-4 Inhibitor I 0.017 | ibrutinib -0.129 | [9] -0.033 | ralimetinib -0.008 | [10] 0.043 | [11] 0.012 | [12] -0.209 | [13] -0.049 | [14] -0.03 | [15] -0.013 | [16] 0.01

NT5C (UniProt Q8TCD5)
inactive: erlotinib -0.059 | [1] -0.001 | [2] 0.008 | [3] 0.008 | [4] 0.044 | [5] -0.016 | [6] 0.003 | [7] 0.014 | [8] -0.01 | IRAK-1-4 Inhibitor I 0.004 | ibrutinib -0.059 | [9] 0.005 | ralimetinib -0.012 | [10] 0.035 | [11] -0.036 | [12] 0.048 | [13] -0.001 | [14] 0.006 | [15] -0.002 | [16] -0.038

NT5DC3 (UniProt Q86UY8)
inactive: erlotinib -0.011 | [1] -0.032 | [2] 0.029 | [3] -0.007 | [4] 0.017 | [5] 0.003 | [6] 0.011 | [7] 0.01 | [8] 0.024 | IRAK-1-4 Inhibitor I 0.011 | ibrutinib -0.042 | [9] 0.019 | ralimetinib 0.013 | [10] -0.048 | [11] -0.012 | [12] -0.032 | [13] -0.013 | [14] -0.03 | [15] 0.019 | [16] 0.009

NUDT5 (UniProt Q9UKK9)
inactive: erlotinib -0.013 | [1] -0.051 | [2] 0.046 | [3] 0.027 | [4] -0.001 | [5] -0.002 | [6] -0.023 | [7] -0.026 | [8] 0.014 | IRAK-1-4 Inhibitor I 0.005 | ibrutinib 0.059 | [9] -0.008 | ralimetinib -0.047 | [10] -0.05 | [11] -0.047 | [12] -0.007 | [13] -0.002 | [14] 0.006 | [15] -0.014 | [16] -0.042

NRBP2 (UniProt Q9NSY0)
inactive: erlotinib 0.087 | [1] 0.038 | [2] 0.064 | [3] 0.053 | [4] 0.133 | [5] 0.042 | [6] -0.051 | [7] -0.02 | [8] 0.025 | IRAK-1-4 Inhibitor I 0.012 | ibrutinib 0.002 | [9] 0 | ralimetinib -0.016 | [10] -0.107 | [11] -0.017 | [12] 0.069 | [13] -0.024 | [14] -0.065 | [15] 0.014 | [16] 0.028
